## Primary screen of a compound library

Protein sequences, listed by entry. Tags and fused reporters are not part of them.
UniProt E9BF75, entry or part of it: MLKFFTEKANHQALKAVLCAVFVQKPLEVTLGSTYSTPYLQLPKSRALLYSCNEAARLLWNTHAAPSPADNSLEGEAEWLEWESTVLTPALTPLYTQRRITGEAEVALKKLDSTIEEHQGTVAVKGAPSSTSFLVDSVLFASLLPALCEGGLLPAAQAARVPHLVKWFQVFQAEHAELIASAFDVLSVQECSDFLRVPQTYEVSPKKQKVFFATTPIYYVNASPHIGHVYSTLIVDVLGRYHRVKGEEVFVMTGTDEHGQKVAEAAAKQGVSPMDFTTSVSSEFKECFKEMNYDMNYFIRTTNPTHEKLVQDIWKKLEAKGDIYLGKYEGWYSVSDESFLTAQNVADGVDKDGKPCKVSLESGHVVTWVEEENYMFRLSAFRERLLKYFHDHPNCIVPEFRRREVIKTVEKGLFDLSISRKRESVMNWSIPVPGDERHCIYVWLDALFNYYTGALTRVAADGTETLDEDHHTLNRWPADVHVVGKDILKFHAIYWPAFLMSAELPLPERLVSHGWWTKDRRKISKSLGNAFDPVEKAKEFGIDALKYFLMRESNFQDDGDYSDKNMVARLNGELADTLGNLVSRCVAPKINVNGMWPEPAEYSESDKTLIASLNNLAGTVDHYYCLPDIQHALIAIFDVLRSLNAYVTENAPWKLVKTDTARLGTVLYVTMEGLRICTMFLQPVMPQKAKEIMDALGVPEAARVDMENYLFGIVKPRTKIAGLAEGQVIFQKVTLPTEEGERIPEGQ

Data taken from ChEMBL document CHEMBL3988442, “University of Dundee, Small-Polar-MMV Screening Library” (2021).

Mtb heat-shock: 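Assay on Mycobacterium tuberculosis, filed only as a heat shock assay from Cornell; the read-out is not stated. The concentration is filed as 10 mM, unlikely as a test dose, so the dose is not known. Higher reads as stronger inhibition (inferred: compounds with an IC50 in retests scored well above the rest). About 69,000 compounds were tested under these conditions; 1.4% (about 930) showed 50% or more at least once.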
LdMetRS: 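Primary screen of methionyl-tRNA synthetase; the read-out is not stated. Target: Methionyl-tRNA synthetase (putative), Leishmania donovani (UniProt E9BF75). The test concentration is not given. The values are filed as inhibition. About 68,000 compounds were tested under these conditions; 0.035% (about 24) showed 50% or more at least once.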
Mtb growth Cornell: 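Whole-cell assay for inhibitors of Mycobacterium tuberculosis growth, labelled Cornell in the record; the read-out is not stated. The concentration is filed as 10 mM, unlikely as a test dose, so the dose is not known. The record gives no direction; compounds strong in two other growth screens of this library score well above the rest, so higher reads as stronger inhibition. Of about 53,000 compounds tested this way, about 900 (1.7%) reached 50% or more in at least one test.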

All values are in %. The controls that fix the scale are not given in the record; negative values are as filed. The compounds are a random part of those screened. A dash means the value is not listed here; it may have been measured.

compound	Mtb heat-shock	LdMetRS	Mtb growth Cornell
O=C(Nc1cnn(Cc2ccc(Cl)cc2)c1)N[C@@H]1C=C[C@H](CO)C1	-7.435	25.27	24.39
CCOCc1cnc2n1CCN(Cc1nc(C)cs1)C2C.O=C(O)C(F)(F)F (stereo not drawn)	-15.14	-	33.35
c1cc(CN2CCC(Cc3noc(C4CC4)n3)CC2)c2c(c1)OCO2	-15.17	15.19	11.43
O=C(NCC1CC1)C1=NOC2(CCN(Cc3ccc(Cl)c(F)c3)C2)C1 (stereo not drawn)	-4.147	5.263	7.127
CCOCC1CN(C(=O)CS(C)(=O)=O)Cc2cnn(C)c21.O=C(O)C(F)(F)F (stereo not drawn)	10.17	-	23.11
CC1(C)Cc2nc(C(C)(C)C)ncc2C(NC(=O)CN)C1 (stereo not drawn)	-19.02	21.05	-2.044
CCn1cnnc1Cc1nc2c([nH]1)CC(c1ccc(Cl)cc1)CNC2=O (stereo not drawn)	-24.02	5.651	1.379
O=C(Cc1ccc(O)c(Cl)c1)N1CCCCC1CCn1cccn1 (stereo not drawn)	2.304	13.41	-
Cc1n[nH]c(C2CN(CC(=O)NCCc3ccsc3)CCO2)n1 (stereo not drawn)	-2.845	8.374	-33.12
Cc1nn(Cc2ccc(C(=O)NCCCN3CCCC3=O)o2)c(C)c1Cl	-19.08	14.52	4.054
CNS(=O)(=O)c1cccc(S(=O)(=O)Nc2ncc(C)s2)c1	68.64	9.023	51.19
c1cc(-c2cn[nH]c2)ncc1CN1CCCCC1	-1.094	13.56	10.34
COCC(Nc1ncnc2sc(C)c(C)c12)c1ccnn1C (stereo not drawn)	-2.774	18.56	37.75
Cc1cc(F)cc(S(=O)(=O)NC(=O)CCc2cncc(F)c2)c1	-3.774	12.63	-
CNC(=O)c1cc2c(nc1N(C)C)CCN(c1ncc(C)cn1)CC2.O=C(O)C(F)(F)F	38.06	-	9.524
CC1CCN(C(=O)c2cn(-c3cc(N4CCOCC4)ncn3)cn2)CC1	-11.65	15.03	-69.13
O=C(N[C@@H]1CN(c2ncccn2)C[C@@H]2CCCO[C@@H]21)c1cnccn1	-	19.67	-
O=C(O)C(F)(F)F.[H][C@@]12CN(Cc3ccsc3)CCO[C@]1([H])CN(C(=O)C1CC(F)(F)C1)C2	4.373	-	-21.53
Cc1cnn(CC2CCCCN2CC(=O)Nc2cccnc2)c1 (stereo not drawn)	-21.95	1.416	-11.9
COc1ccc(OC)c(C(C)NC(=O)c2nn(C)c(C)c2Br)c1 (stereo not drawn)	-15.65	8.393	17.31
C1CCC(OCCN2CCN(CCOC3CCCCC3)CC2)CC1	11.42	9.749	4.113
c1csc(CN2Cc3[nH]nc(COCC4CC4)c3C2)c1	-	23.88	-
Cc1cnn(CC2CCCN2C(=O)CCc2c(C)noc2C)c1 (stereo not drawn)	-13.41	2.87	-
CCC1CCCCN1S(=O)(=O)c1c(C)noc1C (stereo not drawn)	-1.394	-0.2577	8.431
O=C(O)C(F)(F)F.[H][C@@]12CCN(c3ncc(F)cn3)C[C@]1(COc1nccc(C)n1)CCO2	2.932	-	-3.919
CNC(=O)C1CCC(NC(=O)N(C)Cc2c(C)noc2C)CC1 (stereo not drawn)	-9.064	12.88	3.883
[H][C@@]12CN(S(C)(=O)=O)C[C@]1(C(=O)NC)CCC21CCN(C(=O)COC)CC1	-26.58	-	-
CCC(CC)NC(=O)Cn1cc(-c2ccccc2)cn1	-18.29	18.8	-7.255
Cc1cnc(N2CCC3(CC2)CC(NC(=O)C(C)C)CO3)nc1 (stereo not drawn)	-35.96	8.759	-2.204
CCn1ncc2c1NC(=O)CC2c1cnc(NCc2ccccc2)nc1 (stereo not drawn)	-8.076	12.1	-19.67
CS(=O)(=O)NCc1cc2n(n1)CCCN(Cc1nc3ccccc3[nH]1)C2	9.526	15.56	-41.05
COCCN1CCN(c2ccc(C)nn2)Cc2cccnc21.O=C(O)C(F)(F)F	-23.36	-	15.63
O=C(NCC1CC1)c1nc2c(o1)CN(CC1CC1)C2	-	14.49	-
Cc1ccccc1CN1CCNC(=O)C1CC(=O)NCC1CCCCC1 (stereo not drawn)	17.42	12.05	34.52
CO[C@@H]1CCN(c2ncc(F)cn2)[C@@H]2CN(Cc3cccnc3)C[C@@H]21	-	6.574	-
[H][C@]12CC[C@](O)(c3cccc(OC)c3)[C@@]1([H])CN(C(=O)c1cn(C)nc1C)C2	-3.781	-	1.58
N#Cc1cccc(CNC(=O)NC2CCN(CC(F)F)CC2)c1	-1.592	-0.7117	-
Cc1cnc(N)nc1N1CCN(CCCO)CC1	-26.65	10.05	19.02
CCOc1ccc(-c2cc(=O)n3c(n2)CCCCC3)cc1	7.607	2.88	-6.313
COc1ccc(-c2nc(CCNCc3ccncc3)co2)cc1	6.184	14.61	44.79
Cc1cc(N2CCC(O)(CN(C)C(=O)CCCN)C2)c2cnccc2n1 (stereo not drawn)	-9.769	19.81	30.68
Cc1n[nH]c(C)c1S(=O)(=O)N1CCC(Oc2ccccc2F)CC1	0.8004	11.02	3.631
CCOc1cc(NC(=O)NCCn2cnnc2CC)ccc1C	8.217	15.19	-
Cc1c(-c2nc3cc(S(=O)(=O)N4CCCC4)ccc3n2C)cnn1C	1.242	18.05	-4.812
Cc1noc(CNc2ccccc2CC(=O)N(C)C)n1	15.93	10.43	11.45
CCCC(O)CN1CCC(=O)N(CC)Cc2cc3c(cc21)OCO3 (stereo not drawn)	53.46	4.11	3.534
COc1ccc(F)cc1C(=O)C1CCCN(Cc2ccc(C)s2)C1 (stereo not drawn)	2.467	11.85	-
O=C(O)c1cc(S(=O)(=O)N2CCOc3ccccc32)ccc1F	25.98	10.43	2.963
Cc1ccc(CC(=O)N2CCCN(Cc3nccn3C)CC2)cn1	-24.96	22.95	-
CC(CCc1ccccc1)NC(=O)CNCCCN(C)C.O=C(O)C(=O)O (stereo not drawn)	2.378	-	-
c1cncc(OCC2CN(Cc3ccco3)Cc3nccn3C2)c1 (stereo not drawn)	-11.26	9.5	-5.865
O=S(=O)(NC1CCN(CC(F)(F)F)C1)c1cc(F)cc(F)c1 (stereo not drawn)	3.192	14.63	-
CCc1ccc(CN(C)c2cc(COC)nc3ccnn23)cc1	5.613	12.75	59.92
CCc1cccc2cc(CN)c(=O)[nH]c12	7.552	11.84	-0.5198
CCS(=O)(=O)N1CCc2nc(C3CCN(C(=O)C4CC4)C3)nc(O)c2C1 (stereo not drawn)	0.3892	17.71	-4.283
Cc1oc(-c2cccc(F)c2F)nc1CN(CCO)C(C)C	5.245	9.044	11.66
COC(=O)Cn1c(C)cc(=O)c2cc(F)ccc21	15.26	9.244	-
Cc1cc(C)c(CNc2ncnc3c2cnn3C)c(=O)[nH]1	14.03	12.78	-
CC(C(=O)NCc1ccc(N2CCCC2)nc1)S(C)(=O)=O (stereo not drawn)	-15.05	1.534	-

Once more, the final 5:

* CCS(=O)(=O)N1CCc2nc(C3CCN(C(=O)C4CC4)C3)nc(O)c2C1 (stereo not drawn) : Mtb heat-shock: 0.3892%; LdMetRS: 17.71%; Mtb growth Cornell: -4.283%
* Cc1oc(-c2cccc(F)c2F)nc1CN(CCO)C(C)C : Mtb heat-shock: 5.245%; LdMetRS: 9.044%; Mtb growth Cornell: 11.66%
* COC(=O)Cn1c(C)cc(=O)c2cc(F)ccc21 : Mtb heat-shock: 15.26%; LdMetRS: 9.244%
* Cc1cc(C)c(CNc2ncnc3c2cnn3C)c(=O)[nH]1 : Mtb heat-shock: 14.03%; LdMetRS: 12.78%
* CC(C(=O)NCc1ccc(N2CCCC2)nc1)S(C)(=O)=O (stereo not drawn) : Mtb heat-shock: -15.05%; LdMetRS: 1.534%